# Experimental data reported in PubChem BioAssay AID1347131 (National Center for Advancing Translational Sciences (NCATS), 2019).
# The whole screen tested about 410,000 compounds, of which about 2,000 (0.49%) were called active. Inconclusive results, whose numbers are uncertain, are shown with a selection of clear calls. Calls come from the whole dose curve; tested in HEK293 reporter line. A potency beside an inconclusive call is a rough fit, not a confirmed value.
# Assay: qHTS Assay for Foot and Mouth Disease Virus Antivirals: Primary Screen against the MLPCN compound library; note: nearly all actives have a fitted effect of over 55% in size
# Conditions: FMDV antiviral cell-based qHTS; activity, negative = inhibition: at 57.9 µM (top of the series)
# Potency is the fitted concentration of half-maximal effect.
SMILES,Potency,"activity, negative = inhibition"
O=C1C=CC(=O)N1CCNc1ncc(C(F)(F)F)cc1Cl,"inconclusive: 31.6 µM [inhibitor, partial curve, poor fit]",–
CCN(CC)S(=O)(=O)c1ccc(NC(=O)c2ccc(N(C)S(C)(=O)=O)cc2)cc1,"inconclusive: 3.98 µM [inhibitor, partial curve, poor fit]",–
CCCn1c(=S)[nH]c2cc(C(=O)N3CCCC(C(=O)OCC)C3)ccc2c1=O (stereo unspecified),"inconclusive: 17.8 µM [inhibitor, partial curve, poor fit]",–
Cn1c(SCCOc2ccccc2F)nc2ccccc2c1=O,"inconclusive: 39.8 µM [inhibitor, partial curve, poor fit]",–
O=C(NCc1ccccc1)c1cc(S(=O)(=O)N2CCCCC2)ccc1N1CCOCC1,"inconclusive: 7.08 µM [inhibitor, partial curve]",–
COc1ccc(-c2cn3nc(N4CCCC(C(=O)Nc5cccc(Cl)c5C)C4)sc3n2)cc1 (stereo unspecified),"inconclusive: 8.91 µM [inhibitor, full curve]",–
Cc1ccc(CNC(=O)CCCn2nc(C)c3c(C)n(-c4ccccc4)nc3c2=O)cc1,"inconclusive: 7.08 µM [inhibitor, partial curve, poor fit]",–
COc1ccc(CC(=O)N(Cc2ccccc2)c2ccc(C)cc2)cc1OC,–,inactive: -32.2%
O=C(/C=C\Nc1ccc2c(c1)OCO2)c1cccs1,"inconclusive: 10 µM [inhibitor, partial curve, poor fit]",–
O=C1C(Cl)=C(Nc2ccc3cn[nH]c3c2)C(=O)c2ccccc21,"inconclusive: 20 µM [inhibitor, partial curve, poor fit]",–
COc1ccccc1N1CCN(CC(=O)Nc2ccccc2C(=O)NC(C)c2ccccc2)CC1 (stereo unspecified),–,inconclusive: -31.8% [inhibitor]
CN(C)c1ccc(-c2nc(-c3ccco3)no2)cc1[N+](=O)[O-],"inconclusive: 20 µM [inhibitor, single point]",–
Brc1ccccc1/C=N/Nc1ccc2ccccc2n1,"inconclusive: 20 µM [inhibitor, single point]",–
Cc1[nH]c2ccccc2c1C(=O)CN1C(=O)C(=O)N(CCC2=CCCCC2)C1=O,–,inactive: -31.7%
COc1ccc(-c2cc(=NC(CC(C)C)C(=O)O)c3cc(C)ccc3o2)cc1 (stereo unspecified),–,inactive: 102%
COC(=O)c1[nH]c2ccc(Br)cc2c1NC(=O)CN1CCN(C2CCCCC2)CC1,"inconclusive: 31.6 µM [inhibitor, partial curve, poor fit]",–
c1ccc(-c2ccc(-c3n(-c4ccccn4)c4ccccc4[n+]3-c3ccccn3)cc2)cc1,"inconclusive: 14.1 µM [inhibitor, partial curve, poor fit]",–
CCC(Oc1ccccc1F)C(=O)N1CCC(c2nc3ccccc3s2)CC1 (stereo unspecified),"inconclusive: 25.1 µM [inhibitor, partial curve, poor fit]",–
COc1ccccc1C=C1CCc2ccccc2C1=O,"inconclusive: 25.1 µM [inhibitor, single point]",–

SMILES,Potency,"activity, negative = inhibition"
CC[n+]1c(-c2ccccc2)c2cc(N)ccc2c2ccc(N)cc21,"inconclusive: 39.8 µM [inhibitor, partial curve, poor fit]",–
O=C(NC1CCC(=O)N(CCOc2ccccc2)CC1)OCc1ccccc1 (stereo unspecified),–,inactive: -29%
O=c1c2ccccc2nc(/C=C/c2cccc3ccccc23)n1-c1ccccc1Cl,"inconclusive: 22.4 µM [inhibitor, partial curve, poor fit]",–
CCN(CC)S(=O)(=O)c1cccc(C(=O)Nc2ccc(C#N)cc2)c1,"inconclusive: 25.1 µM [inhibitor, partial curve, poor fit]",–
Cc1oc(-c2ccc(Cl)cc2)nc1CS(=O)CC(=O)N1CCN(c2cccc(C(F)(F)F)c2)CC1 (stereo unspecified),"inconclusive: 31.6 µM [inhibitor, partial curve, poor fit]",–
COc1cccc(N2CCN(c3ncnc4c3nc3n4CCCCC3)CC2)c1,"inconclusive: 11.2 µM [inhibitor, partial curve, poor fit]",–
Cn1c(=O)n(C)c2cc(C(=O)Nc3ccc4c(c3)OCO4)ccc21,–,inactive: 107%
COCCCn1c(=N)c(C(=O)NCc2ccco2)cc2c(=O)n3ccccc3nc21,"inconclusive: 7.08 µM [inhibitor, partial curve, poor fit]",–
CCc1cccc(C)c1Nc1c(-c2ccccc2)nc2sccn12,–,inactive: -32%
CCn1c(=O)c([N+](=O)[O-])c(N2CCN(Cc3ccc4c(c3)OCO4)CC2)c2ccccc21,"inconclusive: 31.6 µM [inhibitor, partial curve, poor fit]",–
COc1ccc(-c2sc3ccc(OC)cc3c2-c2ccc(OC)c(F)c2)cc1,–,inconclusive: -30.1% [inhibitor]
CC1=NN(c2nc(-c3ccc(C)cc3)cs2)C(=O)C1N=Nc1ccc(C(N)=O)cc1 (stereo unspecified),"inconclusive: 5.62 µM [inhibitor, partial curve, poor fit]",–
COC(=O)c1ccc(C2/C(=C(\O)c3ccc(OC)c(C)c3)C(=O)C(=O)N2c2cc(C)on2)cc1 (stereo unspecified),"inconclusive: 12.6 µM [inhibitor, partial curve, poor fit]",–
Cc1occc1-c1nc(-c2ccccn2)no1,"inconclusive: 17.8 µM [inhibitor, single point]",–
Cc1cc(C(=O)COc2ccccc2C(N)=O)c(C)n1CC1CCCO1 (stereo unspecified),"inconclusive: 28.2 µM [inhibitor, partial curve, poor fit]",–
CC(C)c1cc(Br)c(NC(=O)Nc2cccnc2)c(Br)c1,–,inactive: -33.2%
O=C1/C(=C/N(C(=O)c2ccco2)c2ccc(Br)cc2)Sc2ccccc21,"inconclusive: 11.2 µM [inhibitor, partial curve, poor fit]",–
CC(C)(C)c1ccc(OCCC(=O)Nc2cccc(S(=O)(=O)N3CCOCC3)c2)cc1,"inconclusive: 25.1 µM [inhibitor, partial curve, poor fit]",–
COc1cc(C(C)=O)ccc1COc1ccc(C(=O)OCC(=O)NC(C)(C)C)cc1OC,"inconclusive: 20 µM [inhibitor, partial curve, poor fit]",–

# 2 records drawn at random from those above:
SMILES,Potency,"activity, negative = inhibition"
CC(C)c1cc(Br)c(NC(=O)Nc2cccnc2)c(Br)c1,–,inactive: -33.2%
COCCCn1c(=N)c(C(=O)NCc2ccco2)cc2c(=O)n3ccccc3nc21,"inconclusive: 7.08 µM [inhibitor, partial curve, poor fit]",–

# Next records.

SMILES,Potency,"activity, negative = inhibition"
CCOC(=O)/C(=C\c1ccccc1)C(=O)c1cc(C(C)=O)c(Nc2ccccc2)s1,"inconclusive: 14.1 µM [inhibitor, partial curve, poor fit]",–
COc1cc(C(=O)N/N=C(\c2ccccc2)c2ccccn2)cc(OC)c1OC,"inconclusive: 39.8 µM [inhibitor, partial curve, poor fit]",–
O=C1NC(=O)N(Cc2ccco2)C(=O)/C1=C\c1cccn1CCOc1ccc(Cl)cc1,"inconclusive: 35.5 µM [inhibitor, partial curve, poor fit]",–
CCOc1cccc(CC(=O)NCc2ccc3c(c2)CCN3C(=O)c2cccc(C)c2)c1OCC,"inconclusive: 14.1 µM [inhibitor, partial curve, poor fit]",–
Cc1ccc(S(=O)(=O)N2C[C@H]3n4c(=O)ccc(=O)n4C[C@H](OC(=O)NCc4ccccc4F)[C@@]3(O)C2)cc1,"inconclusive: 20 µM [inhibitor, partial curve, poor fit]",–
Cc1ccc(S(=O)(=O)N(C)Cc2ccc(C(=O)N/N=C/c3ccc(OC(F)F)cc3OC(F)F)cc2)cc1,"inconclusive: 6.31 µM [inhibitor, full curve, poor fit]",–
COc1ccc(OC)c(C(=O)NC(CC(N)=O)c2ccc(N3CCN(c4ccccn4)CC3)c([N+](=O)[O-])c2)c1 (stereo unspecified),"inconclusive: 2.51 µM [inhibitor, full curve]",–
COc1ccc(-c2nc(CN3CCC(C(=O)NC4CCN(Cc5ccccc5)CC4)CC3)c(C)o2)cc1OC,"inconclusive: 14.1 µM [inhibitor, partial curve, poor fit]",–
CC1(C(=O)Nc2ccc3[nH]ncc3c2)CCN1C(=O)Cc1ccc(-c2ccccc2)cc1 (stereo unspecified),"inconclusive: 39.8 µM [inhibitor, partial curve, poor fit]",–
Cc1ccc(NC(=O)C/C(N)=N/OC(=O)Nc2ccc(C)c(Cl)c2)cc1,"inconclusive: 3.16 µM [inhibitor, full curve]",–
CC1CN/C(=C\C(=O)c2ccc(Br)cc2)C(=O)N1 (stereo unspecified),"inconclusive: 12.6 µM [inhibitor, partial curve, poor fit]",–
Cn1nnnc1SCC(=O)N1c2ccccc2CCc2ccccc21,"inconclusive: 15.8 µM [inhibitor, partial curve]",–
CCOC(=O)[C@]12Cc3c(cc(OC)c(OC)c3OC)[C@H]1N(C)C(=O)c1cc(OC)ccc12,"inconclusive: 10 µM [inhibitor, partial curve, poor fit]",–
O=C(COc1cccc(NC(=O)c2cccc([N+](=O)[O-])c2)c1)c1ccc(Br)cc1,"inconclusive: 20 µM [inhibitor, partial curve, poor fit]",–
CC1=NN(C(=O)c2cccc(Cn3nc(C)c([N+](=O)[O-])c3C)c2)C(O)(C(F)(F)F)C1 (stereo unspecified),"inconclusive: 8.91 µM [inhibitor, partial curve]",–
O=C(COc1cccnc1[N+](=O)[O-])Nc1ccc(Cl)c(S(=O)(=O)N2CCOCC2)c1,"inconclusive: 14.1 µM [inhibitor, partial curve, poor fit]",–
CC(C)Oc1ccc(C(=O)Nc2nc3c(s2)CC(C(C)(C)C)CC3)cc1 (stereo unspecified),–,inactive: -30.1%
COc1ccc(OC)c(-n2c(O)c(/C=C3\C=Nc4ccccc43)c(=O)[nH]c2=O)c1,"inconclusive: 39.8 µM [inhibitor, partial curve, poor fit]",–

# As a short view, some entries already given.
SMILES,Potency,"activity, negative = inhibition"
CC1=NN(C(=O)c2cccc(Cn3nc(C)c([N+](=O)[O-])c3C)c2)C(O)(C(F)(F)F)C1 (stereo unspecified),"inconclusive: 8.91 µM [inhibitor, partial curve]",–
O=C(COc1cccnc1[N+](=O)[O-])Nc1ccc(Cl)c(S(=O)(=O)N2CCOCC2)c1,"inconclusive: 14.1 µM [inhibitor, partial curve, poor fit]",–
